This is one part of the list.
Key:
Experiment in all cases: glycan array binding signal (z-score within array); higher = stronger binding
Conditions in all cases: glycan notation: IUPAC condensed, linker removed
[1] = target: Fuc(a1-2)[Gal(a1-3)]Gal(b1-4)GlcNAc(b1-2)Man(a1-3)[Fuc(a1-2)[Gal(a1-3)]Gal(b1-4)GlcNAc(b1-2)Man(a1-6)]Man(b1-4)GlcNAc(b1-4)[Fuc(a1-6)]GlcNAc
Summary of the method: (§1)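 Negative Z-scores can be read as non-binding. The Z-score is calculated within each array and then averaged across arrays of one protein sequence at different concentrations or buffers and across linkers. Arrays, 3228 in all, were curated from the Consortium for Functional Glycomics database and kept only where the protein sequence was available.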

[2] = target: Fuc(a1-2)[Gal(a1-3)]Gal(b1-4)GlcNAc(b1-3)GalNAc
Summary of the method: as §1

[3] = target: Fuc(a1-2)[Gal(a1-3)]Gal(b1-4)GlcNAc(b1-3)[Fuc(a1-2)[Gal(a1-3)]Gal(b1-4)GlcNAc(b1-6)]GalNAc
Summary of the method: as §1

[4] = target: Fuc(a1-2)[Gal(a1-3)]Gal(b1-4)GlcNAc(b1-6)GalNAc
Summary of the method: as §1

[5] = target: Fuc(a1-2)[Gal(a1-3)]Gal(b1-4)[Fuc(a1-3)]Glc
Summary of the method: as §1

[6] = target: Fuc(a1-2)[Gal(a1-3)]Gal(b1-4)[Fuc(a1-3)]GlcNAc
Summary of the method: as §1

[7] = target: Fuc(a1-2)[Gal(a1-3)]Gal(b1-4)[Fuc(a1-3)]GlcNAc(b1-3)GalNAc
Summary of the method: as §1

[8] = target: Fuc(a1-2)[Gal(a1-4)]Gal(b1-4)GlcNAc
Summary of the method: as §1

[9] = target: Fuc(a1-2)[GalNAc(a1-3)]Gal
Summary of the method: as §1

[10] = target: Fuc(a1-2)[GalNAc(a1-3)]Gal(b1-3)GalNAc(a1-3)[Fuc(a1-2)]Gal(b1-4)GlcNAc
Summary of the method: as §1

[11] = target: Fuc(a1-2)[GalNAc(a1-3)]Gal(b1-3)GalNAc(b1-3)Gal(a1-4)Gal(b1-4)Glc
Summary of the method: as §1

[12] = target: Fuc(a1-2)[GalNAc(a1-3)]Gal(b1-3)GlcNAc
Summary of the method: as §1

[13] = target: Fuc(a1-2)[GalNAc(a1-3)]Gal(b1-3)GlcNAc(b1-2)Man(a1-3)[Fuc(a1-2)[GalNAc(a1-3)]Gal(b1-3)GlcNAc(b1-2)Man(a1-6)]Man(b1-4)GlcNAc(b1-4)GlcNAc
Summary of the method: as §1

[14] = target: Fuc(a1-2)[GalNAc(a1-3)]Gal(b1-3)GlcNAc(b1-2)Man(a1-3)[Fuc(a1-2)[GalNAc(a1-3)]Gal(b1-3)GlcNAc(b1-2)Man(a1-6)]Man(b1-4)GlcNAc(b1-4)[Fuc(a1-6)]GlcNAc
Summary of the method: as §1

[15] = target: Fuc(a1-2)[GalNAc(a1-3)]Gal(b1-3)GlcNAc(b1-3)GalNAc
Summary of the method: as §1

[16] = target: Fuc(a1-2)[GalNAc(a1-3)]Gal(b1-3)GlcNAc(b1-6)GalNAc
Summary of the method: as §1

[17] = target: Fuc(a1-2)[GalNAc(a1-3)]Gal(b1-4)Glc
Summary of the method: as §1

[18] = target: Fuc(a1-2)[GalNAc(a1-3)]Gal(b1-4)GlcNAc
Summary of the method: as §1

[19] = target: Fuc(a1-2)[GalNAc(a1-3)]Gal(b1-4)GlcNAc(b1-2)Man
Summary of the method: as §1

[20] = target: Fuc(a1-2)[GalNAc(a1-3)]Gal(b1-4)GlcNAc(b1-2)Man(a1-3)[Fuc(a1-2)[GalNAc(a1-3)]Gal(b1-4)GlcNAc(b1-2)Man(a1-6)]Man(b1-4)GlcNAc(b1-4)GlcNAc
Summary of the method: as §1

[21] = target: Fuc(a1-2)[GalNAc(a1-3)]Gal(b1-4)GlcNAc(b1-2)Man(a1-3)[Fuc(a1-2)[GalNAc(a1-3)]Gal(b1-4)GlcNAc(b1-2)Man(a1-6)]Man(b1-4)GlcNAc(b1-4)[Fuc(a1-6)]GlcNAc
Summary of the method: as §1

[22] = target: Fuc(a1-2)[GalNAc(a1-3)]Gal(b1-4)GlcNAc(b1-3)Gal(b1-4)GlcNAc
Summary of the method: as §1

[23] = target: Fuc(a1-2)[GalNAc(a1-3)]Gal(b1-4)GlcNAc(b1-3)Gal(b1-4)GlcNAc(b1-3)Gal(b1-4)GlcNAc
Summary of the method: as §1

[24] = target: Fuc(a1-2)[GalNAc(a1-3)]Gal(b1-4)GlcNAc(b1-3)GalNAc
Summary of the method: as §1

[25] = target: Fuc(a1-2)[GalNAc(a1-3)]Gal(b1-4)GlcNAc(b1-3)[Fuc(a1-2)[GalNAc(a1-3)]Gal(b1-4)GlcNAc(b1-6)]GalNAc
Summary of the method: as §1

[26] = target: Fuc(a1-2)[GalNAc(a1-3)]Gal(b1-4)GlcNAc(b1-6)GalNAc
Summary of the method: as §1

[27] = target: Fuc(a1-2)[GalNAc(a1-3)]Gal(b1-4)[Fuc(a1-3)]GlcNAc
Summary of the method: as §1

[28] = target: Fuc(a1-2)[GalNAc(a1-3)]Gal(b1-4)[Fuc(a1-3)]GlcNAc(b1-3)GalNAc
Summary of the method: as §1

[29] = target: Fuc(a1-2)[GalNAc(a1-4)]Gal(b1-4)GlcNAc
Summary of the method: as §1

[30] = target: Fuc(a1-2)[GalNAc(b1-3)]Gal
Summary of the method: as §1

B1: Sp8391B-bot-388-20-388 (Bacteroides ovatus) (protein)
chain: GCQNNDENEQHYDNKLFISASNFTKEILFKAGDTNVETGLSVAIAKPEEHDIKVTMSPAPELLSTYKLAYYDETAVLLSEEHYSMPETSTTIKSGSIVSPELPIEFINTGELDIKTTYVLPVTIKSVEGIGVLQSAKTYYYVFRGASLINVVCNISRNRAYPDFKNDSKFNNLTENTMEILFKANSFPNTLNTLMGIESNYLLRIGDATIPNNQLQVATSVNNCTSADLQLESGKWYHVAVAFNKGNVKVYINGVEKLSGSTGKSSVSLGAKHTNEEDGSRCFWVGYSYKDDRYFDGVVSEVRIWNRALTAEEIQATNHFYTIEPESEGLIAYWKFDEGSGTVAKDYSVSGYDLTIEKEPKWESVSLPQ
- glycan array binding signal (z-score) [1]: 0.064
- glycan array binding signal (z-score) [2]: -0.166
- glycan array binding signal (z-score) [3]: 1.3
- glycan array binding signal (z-score) [4]: -0.541
- glycan array binding signal (z-score) [5]: -0.854
- glycan array binding signal (z-score) [6]: -0.22
- glycan array binding signal (z-score) [7]: -0.548
- glycan array binding signal (z-score) [8]: 1.12
- glycan array binding signal (z-score) [9]: -0.718
- glycan array binding signal (z-score) [10]: -0.253
- glycan array binding signal (z-score) [11]: 0.126
- glycan array binding signal (z-score) [12]: -0.332
- glycan array binding signal (z-score) [13]: 0.439
- glycan array binding signal (z-score) [14]: -0.402
- glycan array binding signal (z-score) [15]: -0.474
- glycan array binding signal (z-score) [16]: -0.738
- glycan array binding signal (z-score) [17]: -1.4
- glycan array binding signal (z-score) [18]: -0.704
- glycan array binding signal (z-score) [19]: -0.265
- glycan array binding signal (z-score) [20]: -0.023
- glycan array binding signal (z-score) [21]: 0.309
- glycan array binding signal (z-score) [22]: 0.965
- glycan array binding signal (z-score) [23]: 0.044
- glycan array binding signal (z-score) [24]: 0.153
- glycan array binding signal (z-score) [25]: -0.308
- glycan array binding signal (z-score) [26]: 0.687
- glycan array binding signal (z-score) [27]: -0.217
- glycan array binding signal (z-score) [28]: -0.673
- glycan array binding signal (z-score) [29]: -0.233
- glycan array binding signal (z-score) [30]: -0.282

Source: the supplement of paper PMC8728848
